These are yes or no findings as the source states them, for the method shown. Binding seen in cells or lysates may run through a third protein. A yes stands for co-enrichment or nearness to the bait. Other partners may have been found.
Biological target: CK2α, endogenous in mouse tissues (mouse (endogenous in C57BL/6J gastrocnemius muscle, epididymal fat, liver)) (UniProt Q60737)
Assay: affinity purification with mass spectrometry; CK2α immunoprecipitation (rabbit IgG as control) from gastrocnemius muscle and epididymal fat of mice 30 min after MOTS-c or sterilized water; LC-MS/MS, n = 3 per condition

The chains behind the UniProt entries cited, without tags or fusion partners. Where a name states a change or a piece, a line headed by the entry shows the natural chain unless it says otherwise.
UniProt Q60737: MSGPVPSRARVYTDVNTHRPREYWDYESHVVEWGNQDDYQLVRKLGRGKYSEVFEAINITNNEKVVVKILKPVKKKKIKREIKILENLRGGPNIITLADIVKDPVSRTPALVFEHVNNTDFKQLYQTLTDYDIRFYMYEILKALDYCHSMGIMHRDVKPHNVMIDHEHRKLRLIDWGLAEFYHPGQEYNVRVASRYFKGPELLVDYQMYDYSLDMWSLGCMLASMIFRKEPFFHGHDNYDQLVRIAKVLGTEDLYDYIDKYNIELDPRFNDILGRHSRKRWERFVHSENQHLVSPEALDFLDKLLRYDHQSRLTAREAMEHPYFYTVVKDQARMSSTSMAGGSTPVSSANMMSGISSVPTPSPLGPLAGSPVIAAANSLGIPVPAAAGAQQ
UniProt Q0VAW6: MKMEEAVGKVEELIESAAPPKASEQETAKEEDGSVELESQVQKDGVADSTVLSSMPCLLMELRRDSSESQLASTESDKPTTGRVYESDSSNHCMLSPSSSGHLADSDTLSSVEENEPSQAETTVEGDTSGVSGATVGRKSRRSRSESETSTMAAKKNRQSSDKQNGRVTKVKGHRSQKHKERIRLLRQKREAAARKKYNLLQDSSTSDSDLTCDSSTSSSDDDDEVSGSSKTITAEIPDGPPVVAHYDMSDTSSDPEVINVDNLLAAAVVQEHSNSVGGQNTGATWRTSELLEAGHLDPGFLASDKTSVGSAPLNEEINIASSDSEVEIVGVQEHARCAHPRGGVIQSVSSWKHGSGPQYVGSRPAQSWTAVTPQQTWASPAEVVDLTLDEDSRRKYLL
UniProt O54833: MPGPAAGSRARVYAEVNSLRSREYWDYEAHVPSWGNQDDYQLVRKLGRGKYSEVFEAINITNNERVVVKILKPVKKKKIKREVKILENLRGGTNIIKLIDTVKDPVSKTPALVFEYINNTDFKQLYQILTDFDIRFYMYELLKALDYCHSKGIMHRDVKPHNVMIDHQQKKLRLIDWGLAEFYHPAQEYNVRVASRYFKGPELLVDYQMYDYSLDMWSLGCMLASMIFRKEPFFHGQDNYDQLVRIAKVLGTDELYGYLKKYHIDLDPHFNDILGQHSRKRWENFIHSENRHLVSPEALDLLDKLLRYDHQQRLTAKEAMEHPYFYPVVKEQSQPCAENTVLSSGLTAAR
UniProt P21107: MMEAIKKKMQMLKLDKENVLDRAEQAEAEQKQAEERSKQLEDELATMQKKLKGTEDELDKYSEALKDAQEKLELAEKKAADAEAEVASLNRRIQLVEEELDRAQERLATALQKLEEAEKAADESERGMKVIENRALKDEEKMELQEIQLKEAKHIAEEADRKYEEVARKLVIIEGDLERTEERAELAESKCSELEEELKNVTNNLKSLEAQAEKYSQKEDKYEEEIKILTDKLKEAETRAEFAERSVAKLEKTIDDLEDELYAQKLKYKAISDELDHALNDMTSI

| binding | Substance |
| --- | --- |
| binds | 8030462N17Rik (from UniProt Q0VAW6) |
| binds | CK2α′, endogenous in mouse tissues (from UniProt O54833 1-350) (enzyme) |
| binds | tropomyosin 3 (TPM3) (from UniProt P21107 1-285) |
